# No constants are given. Whether binding was seen depends on the method and setting. Some results given as binding are weak or reduced against the parent protein; the word gives no strength. Where a sequence is shown, tags or fusion partners need not be part of it.
# Protein sequences, listed by entry. Tags and fused reporters are not part of them.
# UniProt Q9P126: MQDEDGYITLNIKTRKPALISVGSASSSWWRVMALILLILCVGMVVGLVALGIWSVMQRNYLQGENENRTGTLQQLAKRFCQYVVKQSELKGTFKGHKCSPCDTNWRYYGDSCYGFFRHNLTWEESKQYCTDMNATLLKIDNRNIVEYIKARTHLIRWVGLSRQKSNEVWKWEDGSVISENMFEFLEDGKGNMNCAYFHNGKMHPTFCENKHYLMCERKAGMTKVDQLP
# Biological target: CLEC2^2E3 overexpressed on Ramos-Blue cells (human) (UniProt Q9P126)
# Assay: flow cytometry on cells; soluble CA9-His on CLEC2^2E3 overexpressing or WT Ramos-Blue cells, stained with anti-CA9 (M75); with or without soluble PDPN; only the binder purified
binder,measurement,value
"sPDPN^23−131-His (domain or fragment, UniProt Q86YL7 23-131) ASTGQPEDDTETTGLEGGVAMPGAEDDVVTPGTSEDRYKSGLTTLVATSVNSVTGIRIEDLPTSESTVHAQEQSPSATASNVATSHSTEKVDGDTQTTVEKDGLSTVTL",binding,binds

# — article PMC11674933
